Experimental data reported in article PMC11433124, “Novel Galectins Purified from the Sponge Chondrilla australiensis: Unique Structural Features and Cytotoxic Effects on Colorectal Cancer Cells Mediated by TF-Antigen Binding” (Marine Drugs, 2024).

Test system: T1, hRTL
T1 construct: gene hRTL-P1; native, purified from sponge on lactosyl-agarose; mature protein, N-terminal signal peptide (printed as 23 residues); 141 residues; N-terminus DYIEFES (major), EYVEVES (minor)
Assay: inhibition of hemagglutination (rabbit erythrocytes), two-fold dilutions
Type: cell-based, Chondrilla australiensis
Details: lectin titer 16; TBS, 0.01% Triton X-100, room temperature, 1 h
From the text: inhibition of hemagglutination (rabbit erythrocytes), two-fold dilutions on hRTL

SMILES | Minimum Inhibitory Concentration [mM]
CC(=O)N[C@H]1C(O)O[C@H](CO)[C@H](O)[C@@H]1O (stereo partly drawn) [D-GalNAc] | > 50
OC[C@H]1OC(O)[C@H](O)[C@@H](O)[C@H]1O (stereo partly drawn) [D-galactose] | 25
OC[C@H]1O[C@@H](O[C@H]2[C@H](O)[C@@H](O)C(O)O[C@@H]2CO)[C@H](O)[C@@H](O)[C@H]1O (some centres unmarked) [Lactose, Galβ1-4Glc] | 3.2
OC[C@H]1O[C@H](OC[C@H]2OC(O)[C@H](O)[C@@H](O)[C@@H]2O)[C@H](O)[C@@H](O)[C@H]1O (some centres unmarked) [Melibiose, Galα1-6Glc] | 50
CC(=O)N[C@H]1C(O)O[C@H](CO)[C@H](O)[C@@H]1O[C@@H]1O[C@H](CO)[C@H](O)[C@H](O)[C@H]1O (some centres unmarked) [TF-antigen, Galβ1-3GalNAc] | 1.6
